Measurements: publication PMC4663267, “A Novel C-Terminal Domain of RecJ is Critical for Interaction with HerA in Deinococcus radiodurans”
No constants are given. Whether binding was seen depends on the method and setting.

Sequences of proteins named here, by UniProt entry; tags and fusion partners are left off. A change or cut given only in a name is not applied to a line headed by its entry.
UniProt Q9RW32: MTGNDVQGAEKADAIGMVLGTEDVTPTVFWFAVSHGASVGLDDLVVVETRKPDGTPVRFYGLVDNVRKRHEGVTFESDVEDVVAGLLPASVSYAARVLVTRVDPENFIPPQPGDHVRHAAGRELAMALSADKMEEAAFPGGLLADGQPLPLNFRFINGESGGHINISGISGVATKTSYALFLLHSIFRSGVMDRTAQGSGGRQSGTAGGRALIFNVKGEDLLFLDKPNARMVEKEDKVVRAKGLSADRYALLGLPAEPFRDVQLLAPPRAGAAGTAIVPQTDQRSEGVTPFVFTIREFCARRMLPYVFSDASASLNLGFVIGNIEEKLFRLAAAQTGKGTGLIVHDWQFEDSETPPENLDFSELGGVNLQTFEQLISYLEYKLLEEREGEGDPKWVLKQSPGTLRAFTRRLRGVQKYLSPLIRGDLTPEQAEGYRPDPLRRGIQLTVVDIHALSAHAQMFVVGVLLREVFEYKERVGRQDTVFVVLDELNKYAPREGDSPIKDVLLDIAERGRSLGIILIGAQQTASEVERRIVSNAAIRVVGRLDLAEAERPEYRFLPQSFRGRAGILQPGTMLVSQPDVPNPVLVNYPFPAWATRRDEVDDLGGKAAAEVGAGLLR

Biological target: Deinococcus radiodurans HerA, wild type (Deinococcus radiodurans) (UniProt Q9RW32)
Assay: far-Western, overlay or dot blot; immunodot: proteins spotted on nitrocellulose membrane, blocked, incubated in 1 μM purified protein (100 mM NaCl, 20 mM Tris-HCl pH 7.5, 1 mM DTT, 1 mM EDTA) at 4°C overnight; checked by anti-RecJ or anti-HerA antibody; both purified

B1: Escherichia coli RecJ, full length (enzyme, UniProt P21893 1-577)
chain: MKQQIQLRRREVDETADLPAELPPLLRRLYASRGVRSAQELERSVKGMLPWQQLSGVEKAVEILYNAFREGTRIIVVGDFDADGATSTALSVLAMRSLGCSNIDYLVPNRFEDGYGLSPEVVDQAHARGAQLIVTVDNGISSHAGVEHARSLGIPVIVTDHHLPGDTLPAAEAIINPNLRDCNFPSKSLAGVGVAFYLMLALRTFLRDQGWFDERNIAIPNLAELLDLVALGTVADVVPLDANNRILTWQGMSRIRAGKCRPGIKALLEVANRDAQKLAASDLGFALGPRLNAAGRLDDMSVGVALLLCDNIGEARVLANELDALNQTRKEIEQGMQIEALTLCEKLERSRDTLPGGLAMYHPEWHQGVVGILASRIKERFHRPVIAFAPAGDGTLKGSGRSIQGLHMRDALERLDTLYPGMMLKFGGHAMAAGLSLEEDKFKLFQQRFGELVTEWLDPSLLQGEVVSDGPLSPAEMTMEVAQLLRDAGPWGQMFPEPLFDGHFRLLQQRLVGERHLKVMVEPVGGGPLLDGIAFNVDTALWPDNGVREVQLAYKLDINEFRGNRSLQIIIDNIWPI
With B1 the binding was “no binding (tested: 1 μM)”.
